Amino acid sequences for entries named in this document (tags omitted). A change or cut given only in a name is not applied to a line headed by its entry.
UniProt P18054: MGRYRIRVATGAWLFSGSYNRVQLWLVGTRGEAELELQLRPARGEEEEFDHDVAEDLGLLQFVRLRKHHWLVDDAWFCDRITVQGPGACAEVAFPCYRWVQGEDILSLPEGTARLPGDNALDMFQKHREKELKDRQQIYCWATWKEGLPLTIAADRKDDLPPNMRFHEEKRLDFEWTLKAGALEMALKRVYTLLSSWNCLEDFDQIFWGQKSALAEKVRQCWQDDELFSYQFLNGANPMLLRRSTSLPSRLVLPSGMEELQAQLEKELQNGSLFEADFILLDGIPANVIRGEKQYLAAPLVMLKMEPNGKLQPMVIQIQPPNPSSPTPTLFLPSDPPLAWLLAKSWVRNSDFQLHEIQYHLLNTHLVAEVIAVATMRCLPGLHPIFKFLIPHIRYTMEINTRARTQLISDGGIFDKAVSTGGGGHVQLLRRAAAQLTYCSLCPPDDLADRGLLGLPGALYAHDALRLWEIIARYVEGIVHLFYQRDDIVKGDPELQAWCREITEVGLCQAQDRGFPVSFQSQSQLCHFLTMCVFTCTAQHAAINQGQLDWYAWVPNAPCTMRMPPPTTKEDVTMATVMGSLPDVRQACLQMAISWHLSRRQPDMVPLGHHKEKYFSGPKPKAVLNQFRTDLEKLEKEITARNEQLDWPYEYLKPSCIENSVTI

The whole screen tested about 580,000 compounds, of which about 6,100 (1.1%) were called active. Inconclusive means that the source gave no clear call. Such entries were picked first, then a sample of the others. Calls come from the whole dose curve; as a rule, active = well fitted inhibition curve with a large enough effect; inconclusive = small, poorly fitted or top-dose-only effect, or another doubt; inactive = no such curve, though single readings can be large or run the other way. Where the call is inconclusive, the potency comes from a doubtful curve fit.
The molecules below were run against Polyunsaturated fatty acid lipoxygenase ALOX12 (Homo sapiens) (UniProt P18054) (assay: Primary qHTS assay for inhibitors of human arachidonate 12S-lipoxygenase (ALOX12): Round 2). Conditions: purified 12hLO, xylenol orange hydroperoxide absorbance; activity change, negative = inhibition: at 108 µM (top of the series) unless noted.
Procedure, shortened: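 Purified human 12hLO at 150 nM in 25 mM Hepes, 0.01% Triton X-100, pH 7.0, preincubated 15 min at room temperature with compound. Reaction started with 40 uM arachidonic acid, 30 min at room temperature. Hydroperoxide measured by Fe-xylenol orange, 573/405 nm absorbance ratio.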
For `Cc1ccc(-c2nnn(CC(=O)N(c3cnc4ccccc4c3)C(C(=O)NC3CCCC3)c3ccncc3)n2)o1` (centres undefined), the Potency was inconclusive: 100 µM [inhibitor, partial curve, poor fit].
`NC(=O)c1cccc(CN2CCC3(CC2)CC(c2ccccc2)=NO3)c1` was tested, and the Potency was inconclusive: 8.91 µM [inhibitor, full curve, poor fit].
For `CCCn1c(SCC(=O)N2CCCC(C)C2)nnc1-c1cccnc1` (centres undefined), the “activity change, negative = inhibition” value was inactive: 13.3%.
In the case of `Cc1ccc(Oc2c(C)nc(-c3ccccc3)[nH]c2=O)cc1`, the Potency is reported as inconclusive: 100 µM [inhibitor, single point].
In the case of `CC(C)(C)OC(=O)N1CCC(c2c(C(=O)N3CCc4ccccc4C3)cnn2-c2ccc(Cl)cc2)CC1`, the “activity change, negative = inhibition” value is reported as inactive: 3.38%.
For `CC(=O)c1csc(COc2cc(Cl)cc(Cl)c2)n1`, the Potency was inconclusive: 100 µM [inhibitor, partial curve, poor fit].
With `CCOc1ccccc1CN1C(=O)C2(CCOCC2)CC1c1nnnn1C(C)(C)C` (centres undefined) the “activity change, negative = inhibition” value was inactive: 33.4%.
With `COc1cccc(Cn2c(=O)c(C)nc3cnc(Nc4cccc(OC)c4)nc32)c1` the Potency was inconclusive: 31.6 µM [inhibitor, partial curve, poor fit].
In the case of `COC(=O)[C@H]1[C@H](CO)[C@H]2Cn3c(ccc(Br)c3=O)[C@H]2N1Cc1ccc2c(c1)OCO2`, the Potency is reported as inconclusive: 39.8 µM [inhibitor, partial curve].
With `S=c1[nH]nc(CCc2ccccc2)n1-c1ccc(Cl)cc1` the Potency was active: 31.6 µM.
In the case of `CSc1ccccc1OCc1cc(C(=O)N(C)Cc2nonc2C)no1`, the “activity change, negative = inhibition” value is reported as inactive: -10.8%.
In the case of `c1csc(CNc2nc(-c3ccc4c(c3)OCO4)nc3ccccc23)c1`, the Potency is reported as active: 11.2 µM.
In the case of `COc1cccc(CC(=O)N2CC(Oc3ccc(-c4noc(-c5ccncc5)n4)cc3)C2)c1`, the “activity change, negative = inhibition” value is reported as inactive: 5.3%.
`O=C(c1ccc(-c2ccccc2)cc1)N1CCN(c2ccccc2F)CC1` was tested, and the “activity change, negative = inhibition” value was inactive: -7.9%.
With `c1ccc(C(c2cccs2)c2c[nH]c3ccccc23)cc1` (centres undefined) the “activity change, negative = inhibition” value was inactive: -21%.
`CN(CCc1ccncc1)Cc1ccc(C#N)cc1` was tested, and the Potency was inconclusive: 50.1 µM [inhibitor, partial curve, poor fit].
For `CC(=O)NC1CCN(C(=O)c2coc(COc3ccc4c(c3)OCO4)n2)C1` (centres undefined), the “activity change, negative = inhibition” value was inactive: 93.4%.
`COc1cccc(C(=O)N2CCC(C(=O)N3CCc4nc[nH]c4C3)CC2)c1` was tested, and the “activity change, negative = inhibition” value was inactive: 21.7%.
In the case of `Cc1ccc(S(=O)(=O)Nc2ccc(S(=O)(=O)N3CCOCC3)cc2)cc1[N+](=O)[O-]`, the Potency is reported as inconclusive: 28.2 µM [inhibitor, single point].
`CCOC(=O)c1sc(Nc2ccc(C)cc2C)nc1C` was tested, and the Potency was inconclusive: 112 µM [inhibitor, single point].
For `CCCC(Oc1ccc(Br)cc1)c1nc2c3cc(OC)c(OC)cc3nc(=S)n2[nH]1` (centres undefined), the Potency was inconclusive: 44.7 µM [inhibitor, partial curve, poor fit].
With `Oc1ccc(Cl)cc1Sc1cc(Cl)ccc1O` the Potency was inconclusive: 14.1 µM [inhibitor, full curve, poor fit].
With `O=C(CCn1ccc2ccccc21)NC12CC3CC(CC(C3)C1)C2` the Potency was inconclusive: 79.4 µM [inhibitor, single point].
With `CCN1CCN(C(=S)Nc2ccc(Cl)cc2Cl)CC1` the Potency was inconclusive: 89.1 µM [inhibitor, partial curve, poor fit].
In the case of `C[C@H](CO)N1C[C@H](C)[C@@H](CN(C)S(=O)(=O)c2ccccc2)Oc2c(NC(=O)Nc3ccccc3)cccc2C1=O`, the “activity change, negative = inhibition” value is reported as inactive: -1.78%.
`Cc1ccc(CNc2ncnc3c2c(-c2ccccc2)cn3-c2cccc(Cl)c2)cc1` was tested, and the “activity change, negative = inhibition” value was inactive: -31.3%.
With `CCOC(=O)C(=CNc1ccc(-c2ccco2)c(Cl)c1)C(=O)OCC` the Potency was inconclusive: 35.5 µM [inhibitor, single point].
In the case of `C[N+](C)(C)CCCN(Cc1ccc2c(c1)OCO2)C(=O)NC1CCCCC1`, the Potency is reported as inconclusive: 89.1 µM [inhibitor, partial curve, poor fit].
For `CCCCN(C(=O)c1cccc(S(=O)(=O)N2CCCCC2)c1)C1CCS(=O)(=O)C1` (centres undefined), the Potency was inconclusive: 141 µM [inhibitor, single point].
In the case of `CC[C@H](C)/C=C(C)/C=C/C1=CC2=CC(=O)[C@]3(C)OC(=O)[C@@H](C(C)=O)[C@@H]3C2=CO1`, the Potency is reported as inconclusive: 44.7 µM [inhibitor, partial curve, poor fit].
With `COc1cc(C(=O)C(C#N)C(=O)CC(C)(C)C)cc(Cl)c1OC` (centres undefined) the Potency was inconclusive: 0.355 µM [inhibitor, full curve, poor fit].
With `CCC(NC(=O)c1ccc2nc(Cc3ccc(OC)cc3)oc2c1)c1ccncc1` (centres undefined) the “activity change, negative = inhibition” value was inactive: 16.7%.
With `COC(=O)C1=CN(CC(=O)Nc2cccc(OC)c2)S(=O)(=O)N=C1C` the Potency was inconclusive: 89.1 µM [inhibitor, single point].
In the case of `Cc1cc(N2CCC(NC(=O)c3ccc(N(C)C)cc3)C2=O)ccc1F` (centres undefined), the Potency is reported as inconclusive: 79.4 µM [inhibitor, partial curve, poor fit].
In the case of `O=C1CCCCC(C(=O)NCc2ccco2)N1` (centres undefined), the “activity change, negative = inhibition” value is reported as inactive: 17.4%.
In the case of `Cc1cc2nc(/C(C#N)=C/c3cccs3)[nH]c2cc1C`, the Potency is reported as inconclusive: 20 µM [inhibitor, partial curve, poor fit].
For `COc1ccc(C(=O)OCCN(C)C2CN(Cc3cn(Cc4cccc(C)c4)nn3)S(=O)(=O)C2)cc1OC` (centres undefined), the Potency was inconclusive: 25.1 µM [inhibitor, partial curve, poor fit].
`O=C(CSc1nnc(-c2cccs2)n1-n1cccc1)Nc1ccccc1` was tested, and the Potency was inconclusive: 112 µM [inhibitor, single point].
With `CCS(=O)(=O)N1Cc2ccccc2CC1C(=O)Nc1nc2ccccc2[nH]1` (centres undefined) the “activity change, negative = inhibition” value was inactive: 4.03%.
In the case of `c1ccc(-c2ccccc2OCCN2CCCC2)cc1`, the Potency is reported as inconclusive: 2 µM [inhibitor, full curve, poor fit].
In the case of `O=[N+]([O-])c1ccc(CS(=O)(=O)c2ncn[nH]2)cc1`, the Potency is reported as inconclusive: 4.47 µM [inhibitor, full curve, poor fit].
For `O=C(O)CC(C(=O)O)c1ccccc1` (centres undefined), the “activity change, negative = inhibition” value was inactive: -31%.
With `O=C(NCc1ccccc1)C1C(c2ccccc2)=Nc2ccccc2N1C(=O)c1cnccn1` (centres undefined) the “activity change, negative = inhibition” value was inactive: -0.208%.
With `CC(C)C[C@H](CO)NC(=O)C[C@@H]1c2nc(-c3cccnc3)sc2C[C@@H]2[C@](C)(CO)[C@H](O)CC[C@]21C` the Potency was inconclusive: 39.8 µM [inhibitor, partial curve, poor fit].
% is set by controls: 0 for no effect and ±100 for the full control effect; potency is the fitted concentration of half-maximal effect.
